Experimental data: PubChem BioAssay AID743121 (NCATS, 2013)

- Purpose: 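Genes whose silencing strengthens cell killing by camptothecin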 (primary screen)
- Cell system: MDA-MB-231 cells, a human breast cancer line
- Reagent: single siRNA against human genes, 20 nM siRNA (0.8 pmol per well)
- Timing: 120 h (drug added 48 h after transfection, read 72 h later)
- Conditions: camptothecin 20 nM (about EC30) for 72 h; vehicle 0.1% DMSO in parallel plates
- Measured: 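CellTiter-Glo ATP signal, scaled to control siRNA as percent viability; sensitisation given as log2 of untreated divided by camptothecin-treated viability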
- Scale: log2 vehicle/camptothecin viability: higher = stronger sensitisation to camptothecin
- Rule for the call: 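Each gene scored by redundant siRNA activity (RSA) over its individual siRNA ratios; a gene is called active at p < 0.001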
The whole screen tested about 26,000 reagents; this is a random part of them. Over the whole deposit, 167 (0.63%) got an active call. 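Calls are per gene from RSA p-values that are not deposited; an individual active-marked siRNA can sensitise only weakly.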 The numbers tell different reagents against one gene apart. Further read-outs or replicates are left out here.

log2 vehicle/camptothecin viability, by target and reagent
HOXC13: #1 -0.0696 inactive; #2 0.0597 inactive; #3 0.187 inactive
STYXL2: #1 -0.0581 inactive; #2 -0.148 inactive; #3 -0.644 inactive; #4 -0.691 inactive
FUS: #1 -0.0984 inactive; #2 -0.185 inactive; #3 -0.35 inactive; #4 -0.298 inactive
CDC25C: #1 -0.0753 inactive; #2 -0.293 inactive; #3 -0.15 inactive; #4 0.0948 inactive
HS3ST1: #1 -0.223 inactive; #2 0.803 inactive; #3 -0.0771 inactive; #4 -0.407 inactive
KCNJ13: #1 -0.301 inactive; #2 -0.381 inactive; #3 0.367 inactive; #4 -0.119 inactive
YES1: #1 -0.298 inactive; #2 -0.29 inactive; #3 0.0672 inactive; #4 -0.259 inactive
SUFU: #1 1.1 inactive; #2 -0.013 inactive; #3 0.249 inactive; #4 0.035 inactive
HPR: #1 -0.362 inactive; #2 0.0354 inactive; #3 0.0821 inactive; #4 -0.597 inactive
CCL21: #1 0.405 inactive; #2 -0.138 inactive; #3 -0.248 inactive; #4 -0.418 inactive
CRCP: #1 0.0596 inactive; #2 -0.103 inactive; #3 -0.119 inactive
MFRP: #1 -0.473 inactive; #2 -0.061 inactive; #3 0.0286 inactive; #4 -0.382 inactive
GSTZ1: #1 -0.557 inactive; #2 0.159 inactive; #3 -0.178 inactive
RBBP5: #1 -0.041 inactive; #2 0.236 inactive; #3 -0.419 inactive
LMTK3: #1 -0.167 inactive; #2 0.273 inactive; #3 -0.26 inactive; #4 -0.36 inactive
IRF3: #1 -0.15 inactive; #2 0.316 inactive; #3 -0.165 inactive; #4 0.215 inactive
CUL2: #1 0.155 inactive; #2 -0.656 inactive; #3 -0.0684 inactive; #4 -0.149 inactive
CYP4F22: #1 -0.26 inactive; #2 0.741 inactive; #3 -0.274 inactive
LRP8: #1 -0.0279 inactive; #2 -0.24 inactive; #3 -0.231 inactive; #4 0.0533 inactive
CDH11: #1 -0.347 inactive; #2 -0.247 inactive; #3 0.0897 inactive; #4 -0.171 inactive
MAPKAPK2: #1 -0.392 inactive; #2 -0.445 inactive; #3 -0.173 inactive; #4 0.198 inactive
TUBG1: #1 -0.746 inactive; #2 -0.433 inactive; #3 -0.313 inactive; #4 -0.0854 inactive
BRS3: #1 0.122 inactive; #2 -0.29 inactive; #3 -0.583 inactive; #4 -0.222 inactive
